From patent publication US20200392225A1
Where a chain is given by its changes, count along the chain named. These are yes or no findings as the source states them, for the method shown. Some entries that bind do so weakly or less than the wild type.

Protein sequences, listed by entry. Tags and fused reporters are not part of them. Residues count along the entry.
UniProt P02769, residues 25-607: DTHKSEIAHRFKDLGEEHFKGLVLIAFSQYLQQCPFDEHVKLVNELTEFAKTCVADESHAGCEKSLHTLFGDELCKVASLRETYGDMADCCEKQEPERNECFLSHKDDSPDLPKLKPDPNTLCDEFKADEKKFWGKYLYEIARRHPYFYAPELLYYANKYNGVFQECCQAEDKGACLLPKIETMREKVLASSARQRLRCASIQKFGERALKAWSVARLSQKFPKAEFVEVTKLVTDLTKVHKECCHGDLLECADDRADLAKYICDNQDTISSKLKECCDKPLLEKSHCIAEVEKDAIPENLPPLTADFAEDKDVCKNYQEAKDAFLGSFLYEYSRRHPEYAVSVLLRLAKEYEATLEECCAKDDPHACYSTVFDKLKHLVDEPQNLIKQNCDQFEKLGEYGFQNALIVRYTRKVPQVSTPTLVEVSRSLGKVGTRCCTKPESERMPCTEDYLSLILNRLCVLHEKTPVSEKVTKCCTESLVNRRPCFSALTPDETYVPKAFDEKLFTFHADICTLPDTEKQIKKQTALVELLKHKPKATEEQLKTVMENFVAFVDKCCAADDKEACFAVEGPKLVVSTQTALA

T1: human NPR3 (counter target) (human) (UniProt P17342)
T1 sequence (looked up): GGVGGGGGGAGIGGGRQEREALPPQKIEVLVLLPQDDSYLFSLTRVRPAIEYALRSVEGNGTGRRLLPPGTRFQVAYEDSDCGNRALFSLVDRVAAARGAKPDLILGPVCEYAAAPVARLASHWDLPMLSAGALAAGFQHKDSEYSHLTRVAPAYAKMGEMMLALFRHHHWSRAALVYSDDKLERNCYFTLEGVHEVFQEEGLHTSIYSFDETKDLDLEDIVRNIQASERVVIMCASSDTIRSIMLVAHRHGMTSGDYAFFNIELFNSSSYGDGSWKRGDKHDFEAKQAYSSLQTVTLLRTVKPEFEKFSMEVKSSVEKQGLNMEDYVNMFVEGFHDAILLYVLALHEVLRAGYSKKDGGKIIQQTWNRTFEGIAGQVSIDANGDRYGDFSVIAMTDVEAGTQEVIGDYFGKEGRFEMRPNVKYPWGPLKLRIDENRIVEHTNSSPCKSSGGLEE

B1: XX07 IgG (antibody, V domains shown)
VH: QVQLLESGGGLVQPGGSLRLSCAASGFTFSSYWMNWVRQAPGKGLEWVSAISSDGSYTYYADSVKGRFTISRDNSKNTLYLQMNSLRAEDTAVYYCARDRYSMIYSYGAGAFDYWGQGTLVTVSS
VL: DIQMTQSPSSLSASVGDRVTITCRASQGISSYLAWYQQKPGKAPKLLIYTASTLQSGVPSRFSGSGSGTDFTLTISSLQPEDFATYYCQQIWTVPRTFGQGTKVEIKR
B2: XX08 (antibody, human IgG1, kappa, L234A L235A, V domains shown)
VH: EVQLLESGGGLVQPGGSLRLSCAASGFTFNTHYIHWVRQAPGKGLEWVSSIGGQGGMTLYADSVKGRFTISRDNSKNTLYLQMNSLRAEDTAVYYCARERGYVYYHMFDPWGQGTLVTVSS
VL: DIVLTQSPATLSLSPGERATLSCRASQSITRNYLAWYQQKPGQAPRLLIYGASSRATGIPARFSGSGSGTDFTLTISSLEPEDFAVYYCQQHSMYPRTFGQGTKVEIKR
B3: XX12 IgG (antibody, V domains shown)
VH: B1 VH
VL: B1 VL with T93M, V94A
B4: YY04 IgG (YY04_LALA) (antibody, V domains shown)
VH: EVQLVESGGGLVKPGGSLRLSCAASGFTFSNYWISWVRQAPGKGLEWVGRIKSKTYGGTTDYAEPVKGRFTISRDDSKNTLYLQMNSLKTEDTAVYYCAREKYSIRARGHGDYGFDVWGQGTLVTVSS
VL: B1 VL with S31N, A43V, T50A, F83V, I91G, W92Y, T93H, V94A, R96F
B5: YY05 IgG (YY05_LALA) (antibody, V domains shown)
VH: EVQLVQSGAEVKKPGESLKISCKGSGYSFTSYWISWVRQMPGKGLEWMGIIYPGTSYTRYSPSFQGQVTISADKSISTAYLQWSSLKASDTAMYYCARGAVAGQLGFDHWGQGTLVTVSS
VL: QSVLTQPPSVSGAPGQRVTISCTGSSSNIGAGYDVHWYQQLPGTAPKLLIYGNSNRPSGVPDRFSGSKSGTSASLAITGLQAEDEADYYCQSYYTSSHGPVFGGGTKLTVLG
B6: YY06 IgG (YY06_LALA) (antibody, V domains shown)
VH: EVQLLESGGGLVQPGGSLRLSCAASGFTFSSYAISWVRQAPGKGLEWVSAISGSGGSTYYAESVKGRFTISRDNSKNTLYLQMNSLRAEDTAVYYCARPYLGDRRSYGFDHWGQGTLVTVSS
VL: QSALTQPASVSGSPGQSITISCTGTSSDVGSYNLVSWYQQHPGKAPKLMIYEGSKRPSGVSNRFSGSKSGNTASLTISGLQAEDEADYYCSSYGFHIVVVVFGGGTKLTVLG
B7: YY07 IgG (YY07_LALA) (antibody, V domains shown)
VH: B5 VH with A100S, V101L, A102P, Q104L
VL: B5 VL with S58N, Y94D, T95S, S96P, S97T, H98S, G99S, P100S
B8: XX03 IgG (antibody, V domains shown)
VH: B1 VH with Q1E, A50V, S52E, D54K, S56N, T58I, Y59F
VL: B1 VL with Q89M, I91S, W92Y, T93E, V94K
B9: XX06 IgG (antibody, V domains shown)
VH: B1 VH
VL: B1 VL with I91T, T93R, V94K
B10: YY01 IgG (YY01_LALA) (antibody, V domains shown)
VH: EVQLVESGGGLVQPGGSLRLSCAASGFTFSSYWISWVRQAPGKGLEWVANIKQSGSETYYVESVKGRFTISRDNAKNSLYLQMNSLRAEDTAVYYCARSLRRRSTEHAGFDVWGQGTLVTVSS
VL: B1 VL with S31N, A43V, T50A, F83V, I91A, W92D, T93K, V94F, R96Y
B11: YY02 IgG (YY02_LALA) (antibody, V domains shown)
VH: EVQLVESGGGLVKPGGSLRLSCAASGFTFSSYSMNWVRQAPGKGLEWVSSISSSSSYIYYADSVKGRFTISRDNAKNSLYLQMNSLRAEDTAVYYCARSGYRGVYGFDYWGQGTLVTVSS
VL: B1 VL with L11V, Y32W, T50A, T53S, I91Y, W92Y, T93H, V94S, R96L
B12: YY03 IgG (YY03_LALA) (antibody, V domains shown)
VH: EVQLLESGGGLVQPGGSLRLSCAASGFTFSSYAISWVRQAPGKGLEWVSAISGSGGSTYYAESVKGRFTISRDNSKNTLYLQMNSLRAEDTAVYYCARESGYVYYLKFDYWGQGTLVTVSS
VL: B1 VL with G28S, A34N, T50A, T53S, I91H, W92V, T93R, R96I
B13: WW01 FabCys (Fab, V domains shown)
VH: B2 VH with E1Q, G52S, Q54S, G56S, M57N, L59Y
VL: DIVLTQSPATLSLSPGERATLSCRASQSITRNYLAWYQQKPGQAPRLLIYGASSRATGIPARFSGSGSGTDFTLTISSLEPEDFAVYYCQQHSMYPRTFGQGTKVEIK
B14: WW06 FabCys (Fab, V domains shown)
VH: QVQLVQSGAEVKKPGESLKISCKGSGYSFTSYWIAWVRQMPGKGLEWMGRIDPDNSYTRYSPSFQGQVTISADKSISTAYLQWSSLKASDTAMYYCARWLSPGYALGEQPAGMDHWGQGTLVTVSS
VL: DIVLTQPPSVSGAPGQRVTISCTGSSSNIGAGYAVHWYQQLPGTAPKLLIYSNNKRPSGVPDRFSGSKSGTSASLAITGLQAEDEADYYCQSYDLQKSSRVFGGGTKLTVL

molecular target: BSA (Bos taurus) (UniProt P02769); assay: ELISA, IgG titrated on BSA (irrelevant antigen) [cont.]

| Binder | binding |
| --- | --- |
| B1 | no binding (tested: 200 nM) |
| B2 | no binding (tested: 200 nM) |
| B3 | no binding (tested: 200 nM) |
| B4 | no binding (tested: 1000 nM) |
| B5 | no binding (tested: 1000 nM) |
| B6 | no binding (tested: 1000 nM) |
| B7 | no binding (tested: 1000 nM) |

molecular target: BSA (Bos taurus) (UniProt P02769); assay: ELISA, IgG titrated on BSA (irrelevant antigen)

| Binder | binding |
| --- | --- |
| B8 | no binding (tested: 200 nM) |
| B9 | no binding (tested: 200 nM) |
| B10 | no binding (tested: 1000 nM) |
| B11 | no binding (tested: 1000 nM) |
| B12 | no binding (tested: 1000 nM) |

molecular target: T1, human NPR3 (counter target) (human); assay: FabCys affinity determination on hNPR3

| Binder | binding |
| --- | --- |
| B13 | binds |
| B14 | binds |
